Measurements reported in PubChem BioAssay AID1224826 (NIAID, 2016)
Assay: 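Genes that change LPS-induced Tnf promoter activity in mouse macrophages when knocked down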 (primary screen). Cell system: RAW264.7 G9 macrophages from mouse bearing reporters for p65 (GFP) and the Tnf promoter (mCherry). Reagent: siRNA pool against mouse genes, 100 nM. Timing: 16 h of LPS stimulation, after 2 days of siRNA transfection. Treatment: bacterial lipopolysaccharide (Salmonella minnesota R595), 10 ng/ml. Detection: 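Imaged Tnf reporter mCherry in nuclei, minus background, normalised per plate to the median and expressed as robust z-scores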. Scale: Tnf reporter robust z-score: higher = stronger Tnf promoter reporter signal after LPS; Tnf reporter intensity: higher = stronger Tnf promoter reporter signal. Active means: 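Called active when robust z-score is at most -1.3, matching the median of the Tlr4 knock-down control, or over 3; control wells and wells with under 50 cells never active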. Calls: active = Tnf reporter clearly lowered or raised; inactive = no clear change in Tnf reporter.
The deposit covers about 17,000 reagents; shown is an unselected part. About 1,110 of all reagents (6.6%) were called active. 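Active means lowered or raised reporter signal; replicate intensities are raw and not normalised per plate.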 A number with no mark means an inactive call.

| target | Tnf reporter robust z-score | fewer than 50 cells in well | Tnf reporter intensity, replicate 1 | Tnf reporter intensity, replicate 2 |
| --- | --- | --- | --- | --- |
| Srfbp1 (GeneID 67222) | -0.15 | enough cells in well | 258 | 60.1 |
| Plcd1 (GeneID 18799) | 0.91 | enough cells in well | 277 | 290 |
| Kcnd3 (GeneID 56543) | -0.69 | enough cells in well | 209 | 96.9 |
| Or51t4 (GeneID 258357) | – | fewer than 50 cells per well; well left out of calls | 57.6 | 48.7 |
| Bnip3 (GeneID 12176) | -1 | enough cells in well | 83 | 125 |
| Olig1 (GeneID 50914) | – | fewer than 50 cells per well; well left out of calls | 77.2 | 65.3 |
| Styx (GeneID 56291) | -0.07 | enough cells in well | 308 | 180 |
| Cst7 (GeneID 13011) | -0.6 | enough cells in well | 156 | 193 |
| Cd163 (GeneID 93671) | -1.27 | enough cells in well | 142 | 75.1 |
| Naa50 (GeneID 72117) | 4.88 (active) | enough cells in well | 439 | 440 |
| Sprr4 (GeneID 229562) | 0.46 | enough cells in well | 133 | 98.8 |
| Emp3 (GeneID 13732) | 0.41 | enough cells in well | 271 | 162 |
| Cited4 (GeneID 56222) | 0.06 | enough cells in well | 243 | 220 |
| Vdac2 (GeneID 22334) | -0.75 | enough cells in well | 91.8 | 64.1 |
| Brd7 (GeneID 26992) | 1.35 | enough cells in well | 181 | 277 |
| Tas2r115 (GeneID 353325) | -0.17 | enough cells in well | 111 | 61 |
| Lrrc59 (GeneID 98238) | -0.61 | enough cells in well | 102 | 158 |
| Trp63 (GeneID 22061) | -0.11 | enough cells in well | 236 | 205 |
| Slc38a5 (GeneID 209837) | -0.6 | enough cells in well | 133 | 138 |
| Tubgcp5 (GeneID 233276) | 0.16 | enough cells in well | 111 | 106 |
| Hdac6 (GeneID 15185) | 0.65 | enough cells in well | 280 | 239 |
| Tesmin (GeneID 17771) | -0.2 | enough cells in well | 206 | 102 |
| Clic4 (GeneID 29876) | 0.05 | enough cells in well | 233 | 228 |
| Dym (GeneID 69190) | 0.83 | enough cells in well | 218 | 196 |
| Tdrd6 (GeneID 210510) | -0.49 | enough cells in well | 87.2 | 87.1 |
| Rhox9 (GeneID 104384) | – | fewer than 50 cells per well; well left out of calls | 53.2 | 17.4 |
| Tdpoz5 (GeneID 399676) | 1.29 | enough cells in well | 152 | 148 |
| Crybb3 (GeneID 12962) | 0.94 | enough cells in well | 293 | 284 |
| Rhbdf2 (GeneID 217344) | 0.03 | enough cells in well | 137 | 184 |
| F830004M19Rik (GeneID 320224) | -0.03 | enough cells in well | 235 | 142 |
| Traf7 (GeneID 224619) | 1.68 | enough cells in well | 205 | 84.2 |
| Smpdl3a (GeneID 57319) | – | fewer than 50 cells per well; well left out of calls | 10.2 | 30.7 |
| Or4c29 (GeneID 258453) | -2.25 (active) | enough cells in well | 52.5 | 62.2 |
| A630005I04Rik (retired record) (GeneID 320743) | -1.37 (active) | enough cells in well | 90.5 | 111 |
| Ankk1 (GeneID 244859) | -0.63 | enough cells in well | 187 | 96.4 |
| Vav3 (GeneID 57257) | -0.07 | enough cells in well | 202 | 251 |
| Bbln (GeneID 73737) | 0.48 | enough cells in well | 325 | 61.3 |
| Prr11 (GeneID 270906) | -0.88 | enough cells in well | 140 | 152 |
| Rraga (GeneID 68441) | -0.18 | enough cells in well | 356 | 149 |
| Rbbp9 (GeneID 26450) | 0.56 | enough cells in well | 397 | 224 |
| Pole (GeneID 18973) | 0.61 | enough cells in well | 318 | 213 |
| Trav7d-6 (GeneID 320734) | 0.77 | enough cells in well | 192 | 243 |
| Vmn1r46 (GeneID 113856) | 1.13 | enough cells in well | 162 | 77.4 |
| COL6A3 | 0.12 | enough cells in well | 231 | 142 |
| Or8u3 (GeneID 259015) | -0.3 | enough cells in well | 174 | 130 |
| Alx3 (GeneID 11694) | -1.07 | enough cells in well | 109 | 106 |
| Or8g17 (GeneID 258742) | -0.88 | enough cells in well | 144 | 73.4 |
| Or12d17 (GeneID 258832) | 0.9 | enough cells in well | 316 | 126 |
| Abcd3 (GeneID 19299) | -0.22 | enough cells in well | 151 | 148 |
| Spag6l (GeneID 50525) | – | fewer than 50 cells per well; well left out of calls | 109 | 134 |
| Zfpm2 (GeneID 22762) | 1 | enough cells in well | 302 | 314 |
| Stambpl1 (GeneID 76630) | -0.51 | enough cells in well | 138 | 122 |
| Tbx3 (GeneID 21386) | -0.06 | enough cells in well | 272 | 103 |
| Or2aj5 (GeneID 258959) | 0.91 | enough cells in well | 227 | 164 |
| AW209491 (GeneID 105351) | -0.14 | enough cells in well | 199 | 121 |
| Ap2m1 (GeneID 11773) | -1.82 (active) | enough cells in well | 82.9 | 69.7 |
| Polr1a (GeneID 20019) | -1.63 (active) | enough cells in well | 55.9 | 59.4 |
| Slc15a5 (GeneID 277898) | -0.32 | enough cells in well | 163 | 167 |

4 of these entries, reformatted.
target	Tnf reporter robust z-score	fewer than 50 cells in well	Tnf reporter intensity, replicate 1	Tnf reporter intensity, replicate 2
Kcnd3 (GeneID 56543)	-0.69	enough cells in well	209	96.9
Or51t4 (GeneID 258357)		fewer than 50 cells per well; well left out of calls	57.6	48.7
Bnip3 (GeneID 12176)	-1	enough cells in well	83	125
Olig1 (GeneID 50914)		fewer than 50 cells per well; well left out of calls	77.2	65.3
